Source: the supplement of paper PMC12819154, “High-throughput peptide-centric local stability assay extends protein–ligand identification to membrane proteins, tissues and bacteria” (Nature Structural & Molecular Biology, 2025)
The list shows a part of the results. Small differences around the control level are noise.

Protein sequences, listed by entry. Tags and fused reporters are not part of them. Lines headed by an entry give the natural chain unless they say otherwise; changes in a name come on top.
UniProt Q7RTV0, whole entry, looked up: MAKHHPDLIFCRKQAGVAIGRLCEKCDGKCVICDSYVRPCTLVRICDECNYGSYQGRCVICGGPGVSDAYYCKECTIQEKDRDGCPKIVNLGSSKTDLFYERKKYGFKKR
UniProt Q71F23: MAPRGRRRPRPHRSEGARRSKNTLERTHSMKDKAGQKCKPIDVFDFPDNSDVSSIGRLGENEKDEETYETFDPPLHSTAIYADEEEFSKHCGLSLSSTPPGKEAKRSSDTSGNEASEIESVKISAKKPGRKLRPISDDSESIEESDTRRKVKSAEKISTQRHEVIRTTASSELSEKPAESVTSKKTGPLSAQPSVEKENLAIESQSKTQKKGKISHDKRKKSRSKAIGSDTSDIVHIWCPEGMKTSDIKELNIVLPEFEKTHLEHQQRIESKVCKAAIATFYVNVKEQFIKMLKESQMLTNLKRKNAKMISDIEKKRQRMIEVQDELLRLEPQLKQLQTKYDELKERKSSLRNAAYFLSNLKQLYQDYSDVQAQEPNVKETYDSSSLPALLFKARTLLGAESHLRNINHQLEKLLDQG
UniProt Q7Z309: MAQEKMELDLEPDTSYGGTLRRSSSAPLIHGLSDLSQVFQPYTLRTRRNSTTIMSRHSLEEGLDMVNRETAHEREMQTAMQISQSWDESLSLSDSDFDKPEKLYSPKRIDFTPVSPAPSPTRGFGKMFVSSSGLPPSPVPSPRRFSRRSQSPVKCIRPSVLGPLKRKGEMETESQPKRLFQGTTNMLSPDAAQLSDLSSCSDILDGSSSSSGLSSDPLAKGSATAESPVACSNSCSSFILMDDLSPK
UniProt Q70IA6: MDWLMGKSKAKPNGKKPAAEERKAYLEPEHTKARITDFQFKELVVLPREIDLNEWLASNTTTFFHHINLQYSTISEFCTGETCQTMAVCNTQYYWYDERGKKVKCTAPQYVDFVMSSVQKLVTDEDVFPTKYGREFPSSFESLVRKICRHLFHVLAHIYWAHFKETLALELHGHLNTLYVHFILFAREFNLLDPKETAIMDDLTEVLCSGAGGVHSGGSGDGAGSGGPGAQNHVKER
UniProt Q75LS8: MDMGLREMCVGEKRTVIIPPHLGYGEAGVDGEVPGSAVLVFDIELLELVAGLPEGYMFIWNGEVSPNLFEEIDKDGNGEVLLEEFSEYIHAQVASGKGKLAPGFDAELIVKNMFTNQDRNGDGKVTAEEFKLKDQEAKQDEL
UniProt Q7LFL8: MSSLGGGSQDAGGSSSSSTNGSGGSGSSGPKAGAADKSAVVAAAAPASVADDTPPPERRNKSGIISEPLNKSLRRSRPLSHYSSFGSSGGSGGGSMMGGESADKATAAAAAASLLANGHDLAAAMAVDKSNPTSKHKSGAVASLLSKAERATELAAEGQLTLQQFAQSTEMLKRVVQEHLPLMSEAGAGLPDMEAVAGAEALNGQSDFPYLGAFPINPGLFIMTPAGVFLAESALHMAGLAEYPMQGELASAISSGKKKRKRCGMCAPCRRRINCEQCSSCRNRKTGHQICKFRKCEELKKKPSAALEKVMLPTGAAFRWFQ
UniProt Q7L5Y1: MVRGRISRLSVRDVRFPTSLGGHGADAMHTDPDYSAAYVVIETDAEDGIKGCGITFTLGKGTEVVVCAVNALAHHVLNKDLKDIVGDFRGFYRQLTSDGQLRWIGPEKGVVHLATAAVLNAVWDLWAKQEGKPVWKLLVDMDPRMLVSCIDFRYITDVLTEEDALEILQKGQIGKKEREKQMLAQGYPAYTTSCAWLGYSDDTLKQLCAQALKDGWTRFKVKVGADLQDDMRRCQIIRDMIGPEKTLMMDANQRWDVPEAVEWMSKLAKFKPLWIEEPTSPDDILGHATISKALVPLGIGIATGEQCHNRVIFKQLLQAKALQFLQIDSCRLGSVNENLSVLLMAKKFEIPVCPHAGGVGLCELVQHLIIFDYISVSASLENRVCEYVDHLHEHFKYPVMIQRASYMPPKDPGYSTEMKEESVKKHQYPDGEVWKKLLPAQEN
UniProt Q7Z392: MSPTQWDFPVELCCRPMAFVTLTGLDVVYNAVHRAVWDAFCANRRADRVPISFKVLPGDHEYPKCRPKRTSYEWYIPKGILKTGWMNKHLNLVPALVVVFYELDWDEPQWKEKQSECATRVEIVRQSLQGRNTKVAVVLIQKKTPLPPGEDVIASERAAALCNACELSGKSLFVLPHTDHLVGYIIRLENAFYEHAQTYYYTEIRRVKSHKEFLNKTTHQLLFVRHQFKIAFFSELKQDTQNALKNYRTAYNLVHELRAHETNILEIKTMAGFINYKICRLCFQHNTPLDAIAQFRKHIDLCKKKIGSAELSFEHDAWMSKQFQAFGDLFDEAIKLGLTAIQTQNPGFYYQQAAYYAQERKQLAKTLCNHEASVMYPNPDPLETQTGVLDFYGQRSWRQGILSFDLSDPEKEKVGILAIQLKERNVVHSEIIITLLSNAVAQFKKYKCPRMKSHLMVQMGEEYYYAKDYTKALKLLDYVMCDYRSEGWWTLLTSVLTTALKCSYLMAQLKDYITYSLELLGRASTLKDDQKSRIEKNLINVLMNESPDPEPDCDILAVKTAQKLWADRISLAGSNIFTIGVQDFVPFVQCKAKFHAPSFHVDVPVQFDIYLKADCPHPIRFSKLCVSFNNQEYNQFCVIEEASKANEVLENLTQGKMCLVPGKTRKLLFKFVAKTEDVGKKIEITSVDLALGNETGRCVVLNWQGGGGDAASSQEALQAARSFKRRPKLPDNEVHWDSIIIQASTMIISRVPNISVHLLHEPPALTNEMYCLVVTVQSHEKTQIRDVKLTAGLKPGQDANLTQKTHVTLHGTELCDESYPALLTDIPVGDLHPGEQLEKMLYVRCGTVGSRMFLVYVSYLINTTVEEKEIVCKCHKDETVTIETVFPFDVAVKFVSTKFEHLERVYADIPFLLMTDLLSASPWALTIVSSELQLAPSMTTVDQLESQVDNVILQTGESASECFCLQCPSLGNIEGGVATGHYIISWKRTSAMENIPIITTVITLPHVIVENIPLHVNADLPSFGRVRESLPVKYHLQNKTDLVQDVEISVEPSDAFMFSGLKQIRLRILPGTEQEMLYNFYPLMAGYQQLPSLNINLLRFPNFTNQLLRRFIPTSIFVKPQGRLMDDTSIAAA
UniProt Q7LBR1: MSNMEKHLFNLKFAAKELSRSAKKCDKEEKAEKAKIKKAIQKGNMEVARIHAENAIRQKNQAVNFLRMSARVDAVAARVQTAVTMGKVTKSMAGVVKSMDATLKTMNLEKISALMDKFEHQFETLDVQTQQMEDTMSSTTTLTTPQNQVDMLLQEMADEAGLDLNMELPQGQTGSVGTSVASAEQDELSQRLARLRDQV
UniProt Q7Z7K0: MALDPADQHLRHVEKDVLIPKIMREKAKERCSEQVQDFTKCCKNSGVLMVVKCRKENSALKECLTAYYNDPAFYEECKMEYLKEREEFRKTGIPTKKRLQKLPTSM
UniProt Q7Z494: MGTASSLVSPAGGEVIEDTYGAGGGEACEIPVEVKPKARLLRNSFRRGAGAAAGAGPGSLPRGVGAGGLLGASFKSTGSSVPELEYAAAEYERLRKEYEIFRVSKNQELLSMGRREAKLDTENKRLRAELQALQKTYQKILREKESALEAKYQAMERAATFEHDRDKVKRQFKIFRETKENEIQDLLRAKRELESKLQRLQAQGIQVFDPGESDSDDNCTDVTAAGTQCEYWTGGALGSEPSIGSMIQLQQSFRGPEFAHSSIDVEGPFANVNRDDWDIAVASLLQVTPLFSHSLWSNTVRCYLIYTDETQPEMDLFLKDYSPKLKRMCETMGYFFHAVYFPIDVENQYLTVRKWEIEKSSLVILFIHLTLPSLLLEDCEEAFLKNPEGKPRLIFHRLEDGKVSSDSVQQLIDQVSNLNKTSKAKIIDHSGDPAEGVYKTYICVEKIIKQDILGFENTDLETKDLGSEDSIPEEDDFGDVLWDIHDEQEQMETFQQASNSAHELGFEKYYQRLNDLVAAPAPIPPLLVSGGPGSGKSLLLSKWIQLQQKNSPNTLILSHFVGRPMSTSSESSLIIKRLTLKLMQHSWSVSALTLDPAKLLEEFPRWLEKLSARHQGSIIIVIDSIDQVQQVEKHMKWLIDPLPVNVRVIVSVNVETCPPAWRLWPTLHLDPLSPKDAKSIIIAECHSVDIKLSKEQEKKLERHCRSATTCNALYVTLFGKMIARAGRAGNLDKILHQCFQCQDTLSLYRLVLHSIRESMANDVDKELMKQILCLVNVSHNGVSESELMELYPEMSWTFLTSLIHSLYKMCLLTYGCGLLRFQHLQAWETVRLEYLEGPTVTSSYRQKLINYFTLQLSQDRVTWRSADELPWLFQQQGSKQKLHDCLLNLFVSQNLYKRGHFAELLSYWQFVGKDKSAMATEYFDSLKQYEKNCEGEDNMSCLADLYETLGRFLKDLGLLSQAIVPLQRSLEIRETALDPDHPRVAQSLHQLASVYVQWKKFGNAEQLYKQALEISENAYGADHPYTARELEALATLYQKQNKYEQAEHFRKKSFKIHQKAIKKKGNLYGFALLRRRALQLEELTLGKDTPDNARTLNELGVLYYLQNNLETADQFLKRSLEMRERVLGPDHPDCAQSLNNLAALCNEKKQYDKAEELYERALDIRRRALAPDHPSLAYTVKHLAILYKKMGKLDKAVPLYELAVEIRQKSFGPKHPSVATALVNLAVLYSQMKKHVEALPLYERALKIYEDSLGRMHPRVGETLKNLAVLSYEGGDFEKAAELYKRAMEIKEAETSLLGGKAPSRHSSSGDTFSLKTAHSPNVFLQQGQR
UniProt Q7Z5J4: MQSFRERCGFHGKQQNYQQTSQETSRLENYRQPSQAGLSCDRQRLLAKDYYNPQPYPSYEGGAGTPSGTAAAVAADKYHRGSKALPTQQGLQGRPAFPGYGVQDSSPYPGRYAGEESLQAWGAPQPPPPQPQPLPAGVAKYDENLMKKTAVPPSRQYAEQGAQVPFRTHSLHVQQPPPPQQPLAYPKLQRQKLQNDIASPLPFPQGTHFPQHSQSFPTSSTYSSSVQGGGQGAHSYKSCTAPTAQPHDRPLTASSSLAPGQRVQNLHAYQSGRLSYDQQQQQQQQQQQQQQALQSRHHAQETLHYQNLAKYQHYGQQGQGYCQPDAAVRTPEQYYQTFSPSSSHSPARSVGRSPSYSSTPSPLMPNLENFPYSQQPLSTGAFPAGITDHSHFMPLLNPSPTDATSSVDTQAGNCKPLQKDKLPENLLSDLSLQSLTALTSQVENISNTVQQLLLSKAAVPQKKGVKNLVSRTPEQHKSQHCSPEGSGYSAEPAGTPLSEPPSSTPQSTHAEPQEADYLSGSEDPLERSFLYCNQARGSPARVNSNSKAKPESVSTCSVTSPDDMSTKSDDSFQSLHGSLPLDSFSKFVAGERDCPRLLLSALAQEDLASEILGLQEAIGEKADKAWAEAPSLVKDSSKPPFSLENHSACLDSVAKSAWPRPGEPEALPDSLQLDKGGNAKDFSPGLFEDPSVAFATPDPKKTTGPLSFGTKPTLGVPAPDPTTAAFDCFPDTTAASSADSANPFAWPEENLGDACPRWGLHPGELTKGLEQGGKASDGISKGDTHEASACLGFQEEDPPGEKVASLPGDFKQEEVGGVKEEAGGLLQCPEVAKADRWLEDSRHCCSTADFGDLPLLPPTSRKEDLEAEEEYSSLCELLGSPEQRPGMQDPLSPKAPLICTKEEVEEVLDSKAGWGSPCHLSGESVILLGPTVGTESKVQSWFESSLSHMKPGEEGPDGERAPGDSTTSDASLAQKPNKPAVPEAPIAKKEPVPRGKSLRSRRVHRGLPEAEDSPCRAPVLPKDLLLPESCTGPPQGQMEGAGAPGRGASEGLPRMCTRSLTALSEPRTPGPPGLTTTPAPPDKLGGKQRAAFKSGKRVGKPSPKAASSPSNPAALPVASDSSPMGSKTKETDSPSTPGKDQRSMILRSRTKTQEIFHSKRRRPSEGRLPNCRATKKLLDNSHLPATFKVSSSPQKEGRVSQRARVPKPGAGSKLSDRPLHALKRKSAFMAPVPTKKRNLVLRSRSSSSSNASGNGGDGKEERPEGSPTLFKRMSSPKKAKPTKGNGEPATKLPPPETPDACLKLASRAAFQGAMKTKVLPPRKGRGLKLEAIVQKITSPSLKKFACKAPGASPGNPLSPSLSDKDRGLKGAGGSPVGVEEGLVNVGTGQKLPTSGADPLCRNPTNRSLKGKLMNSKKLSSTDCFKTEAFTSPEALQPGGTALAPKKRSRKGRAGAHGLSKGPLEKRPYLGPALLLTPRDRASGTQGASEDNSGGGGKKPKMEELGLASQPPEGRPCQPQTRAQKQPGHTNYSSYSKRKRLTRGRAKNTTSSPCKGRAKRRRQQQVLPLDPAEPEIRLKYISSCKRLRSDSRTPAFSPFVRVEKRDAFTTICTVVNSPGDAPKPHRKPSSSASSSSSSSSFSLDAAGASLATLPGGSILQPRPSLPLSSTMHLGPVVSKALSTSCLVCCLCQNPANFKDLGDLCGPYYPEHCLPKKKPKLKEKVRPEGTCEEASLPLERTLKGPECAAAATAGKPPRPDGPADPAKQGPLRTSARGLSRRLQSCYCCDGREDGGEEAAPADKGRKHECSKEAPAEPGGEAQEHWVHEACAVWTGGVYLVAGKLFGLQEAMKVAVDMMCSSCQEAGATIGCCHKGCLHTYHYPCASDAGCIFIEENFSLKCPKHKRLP

What follows are targets tested with Cc1nc(Nc2ncc(C(=O)Nc3c(C)cccc3Cl)s2)cc(N2CCN(CCO)CC2)n1 [dasatinib] (assay: log2 fold change of tryptic peptide abundance, ligand vs vehicle (limited proteolysis) (log2 ratio); higher = more trypsin-susceptible (destabilized)). Conditions: ligand concentration: 5 uM; sample: K562 cleared lysate.
Work on “UniProt Q7RTV0 (peptide sequence: CVICDSYVRPCTLVR, peptide start residue: 30)” yielded a log2 fold change of -0.183. For “TRPT1 (peptide sequence: THIHLAPGLPGDPGIISGMR, peptide start residue: 151) (UniProt Q86TN4)”, the log2 fold change was -0.12. With “UniProt Q71F23 (peptide sequence: RSSDTSGNEASEIESVK, peptide start residue: 106)” the log2 fold change was 0.722. “UniProt Q7Z4H7 (peptide sequence: HVLTSHIDEPPTQNQSDLLNK, peptide start residue: 669)” gave a log2 fold change of 0.293. Target “FAM122B (peptide sequence: MELDLEPDTSYGGTLRR, peptide start residue: 6) (UniProt Q7Z309)” has a log2 fold change of 0.126. “UniProt Q7Z434 (peptide sequence: AGMVPSKVPTSMVLTK, peptide start residue: 356)” gave a log2 fold change of -0.0811. Work on “UniProt Q7Z624 (peptide sequence: EVLLTDGNEK, peptide start residue: 173)” yielded a log2 fold change of 0.369. “UniProt Q6ZTB9 (peptide sequence: AFSCSSSIR, peptide start residue: 224)” gave a log2 fold change of 0.0271. “MOB2 (peptide sequence: LVTDEDVFPTKYGR, peptide start residue: 121) (UniProt Q70IA6)” gave a log2 fold change of 0.272. “ATG4D (peptide sequence: FLTAWNNVK, peptide start residue: 69) (UniProt Q86TL0)” was tested, and the log2 fold change was -0.287. “UniProt Q75LS8 (peptide sequence: NGDGKVTAEEFK, peptide start residue: 548)” was tested, and the log2 fold change was 0.482. “CXXC5 (peptide sequence: SGIISEPLNK, peptide start residue: 62) (UniProt Q7LFL8)” was tested, and the log2 fold change was 0.0869. “WASH2P (peptide sequence: QKEQEQVR, peptide start residue: 393) (UniProt Q6VEQ5)” was tested, and the log2 fold change was -0.0469. “RSRC2 (peptide sequence: MLWQGKK, peptide start residue: 337) (UniProt Q7L4I2)” gave a log2 fold change of -0.343. For “ENOSF1 (peptide sequence: VGADLQDDMR, peptide start residue: 223) (UniProt Q7L5Y1)”, the log2 fold change was 0.396. In the case of “CEP68 (peptide sequence: SSLQLYR, peptide start residue: 663) (UniProt Q76N32)”, the log2 fold change is reported as 0.19. “UniProt Q7Z392 (peptide sequence: FIPTSIFVKPQGR, peptide start residue: 1111)” was tested, and the log2 fold change was -0.0393. Target “ZFYVE16 (peptide sequence: VFCGVCCNRK, peptide start residue: 775) (UniProt Q7Z3T8)” has a log2 fold change of 0.617. “RNF111 (peptide sequence: HSQTILNAK, peptide start residue: 165) (UniProt Q6ZNA4)” was tested, and the log2 fold change was 0.79. “CHMP1B (peptide sequence: VQTAVTMGK, peptide start residue: 79) (UniProt Q7LBR1)” showed a log2 fold change of 0.0593. “UniProt Q6UXN9 (peptide sequence: LILISTNGSFIR, peptide start residue: 208)” was tested, and the log2 fold change was -0.335. For “GALNT7 (peptide sequence: GGNGLAPGEDR, peptide start residue: 55) (UniProt Q86SF2)”, the log2 fold change was 0.386. Work on “CMC1 (peptide sequence: HVEKDVLIPK, peptide start residue: 12) (UniProt Q7Z7K0)” yielded a log2 fold change of -0.402. Target “DNAH12 (peptide sequence: KENELMAK, peptide start residue: 601) (UniProt Q6ZR08)” has a log2 fold change of 0.0848. “TTC21B (peptide sequence: MSPNPDREAILESDAR, peptide start residue: 83) (UniProt Q7Z4L5)” showed a log2 fold change of -0.674. For “UniProt Q7Z494 (peptide sequence: FGNAEQLYK, peptide start residue: 1001)”, the log2 fold change was 0.812. In the case of “RAI1 (peptide sequence: TPAFSPFVR, peptide start residue: 1592) (UniProt Q7Z5J4)”, the log2 fold change is reported as -0.297. In the case of “UniProt Q86TM3 (peptide sequence: AAIETLIR, peptide start residue: 107)”, the log2 fold change is reported as 0.0504. Target “DPP8 (peptide sequence: LEPFYVER, peptide start residue: 48) (UniProt Q6V1X1)” has a log2 fold change of 0.0943.
